# Measurements: PubChem BioAssay AID2685 (National Center for Advancing Translational Sciences (NCATS), 2010)
# Values joined by “and” are separate entries in the source; they are usually repeats but may differ in a detail not shown here. Equal values may be shown once. The list shows a part of the results. These are further read-outs of the screen, such as a control signal, another cell line or another target. No call is given for them. The list favours compounds with an active or inconclusive main result. The note in brackets gives the kind of curve behind each potency; many fits are weak.
# Test: qHTS Assay for Lipid Storage Modulators in Drosophila S3 Cells;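 on cell number change: cells counted by Cell Tracker Red CMTPX staining in the red channel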
# Conditions: BODIPY lipid droplet fluorescence, 18-24 h; for cell number change: measured here: cell count max response, cells fed with added oleic acid
# In short: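 Drosophila S3 cells loaded with oleic acid (400 uM, as added) and compounds at several concentrations; lipid droplets imaged by 488-nm laser-scanning cytometry, 500–530 nm intensity and object ratio to cell channel. Percent activity normalized to 20 uM Triacsin C.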
# [1] = measured here: cell number channel AC50, cells fed with added oleic acid
# [2] = measured here: lipid fluorescence (Fed channel) AC50, cells fed with added oleic acid
SMILES,cell number change,AC50 [1],AC50 [2]
Cc1ccc(NC(=O)CCC(=O)NCCO)cc1,-12.3%,"1.64 µM [falling, partial curve]","2.31 µM [falling, partial curve]"
C=CCn1c(SCC(=O)Nc2ccc3c(c2)CCC3)nnc1-c1cccs1,0.811%,–,–
O=C(Cn1c(=O)oc2cc(S(=O)(=O)NCc3ccccc3)ccc21)NCc1ccco1,3.03%,–,–
O=C(CC1CCCC1)Nc1cccc(Br)c1,16.7%,–,"6.51 µM [falling, partial curve, poor fit]"
O=C1CC(c2ccccc2)NN1 (stereo not given),6.88%,"0.00461 µM [falling, full curve, poor fit]","0.58 µM [falling, full curve]"
Cc1ccc(C(=O)N2CCC(C(=O)NC3CCCCCC3)CC2)cc1,4.5%,–,–
O=C(Cc1csc(-c2cccc(Cl)c2)n1)Nc1cccc(S(=O)(=O)NC2=NCCC2)c1,32.8%,"4.61 µM [rising, full curve, poor fit]",–
CCc1nn(C(C)C(=O)NCc2ccc(Cl)cc2)c(=O)c2cc3occc3n12 (stereo not given),0.382%,–,"29.1 µM [rising, single point]"
O=C(NCCCN1CCCC1=O)c1ccc(OCc2ccccc2)cc1,-36.6%,"0.0103 µM [falling, full curve, poor fit]",–
CCC(CC)C(=O)NCc1ccc(Cl)cc1,–,"0.92 µM [falling, full curve]","1.16 µM [falling, full curve]"
Cc1ccc(CNC(=O)CNC(=O)c2c(C)nn(C)c2Cl)cc1,–,–,"0.184 µM [falling, full curve, poor fit]"
CCOc1ccc(-c2c(C(=O)N/N=C/c3ccc(C)o3)nnn2-c2nonc2N)cc1,16.5%,–,–
COc1ccc(N2CCN(C(=O)c3ccc(CNc4c(N5CCOCC5)c(=O)c4=O)cc3)CC2)cc1,20.4%,–,"29.1 µM [rising, single point]"
COc1ccc(N(CC(=O)NCc2ccc(F)cc2)C(=O)CCC(=O)Nc2nccs2)cc1,13.5%,–,–
Cc1ccc2nc(NC3=NCN(CCc4ccccc4)CN3)nc(C)c2c1,1.89%,–,–
CC(C)CC1Nc2ncnc(N3CCCCC3)c2N(Cc2ccc(Br)cc2)C1=O (stereo not given),-10.1%,–,"6.51 µM [falling, single point]"
O=C(OCn1nnc2ccccc2c1=O)c1ccc(N2CCOCC2)c([N+](=O)[O-])c1,–,–,"2.91 µM [rising, partial curve]"
CCCN1CCN(CCCNC(=S)Nc2ccc(OC)cc2)CC1,-58.1%,"0.58 µM [falling, full curve]","0.58 µM [falling, full curve]"
Cc1ccc(S(=O)(=O)N2CCC(=O)N(C(COCc3ccccc3)C(C)C)CC2)cc1 (stereo not given),5.86%,–,"0.731 µM [falling, single point]"
Cc1ccc(S(=O)(=O)N(C)C)cc1NC(=O)c1cc(=O)c2ccccc2o1,7.26%,–,"0.0651 µM [falling, full curve, poor fit]"
CCCCCCCOc1ccc(C(=O)Nc2cccnc2)cc1,-4.74%,–,"29.1 µM [falling, single point]"

# Compounds from the list above that contain two or more sulfur atoms:
SMILES,cell number change,AC50 [1],AC50 [2]
C=CCn1c(SCC(=O)Nc2ccc3c(c2)CCC3)nnc1-c1cccs1,0.811%,–,–
O=C(Cc1csc(-c2cccc(Cl)c2)n1)Nc1cccc(S(=O)(=O)NC2=NCCC2)c1,32.8%,"4.61 µM [rising, full curve, poor fit]",–

# Further results:

SMILES,cell number change,AC50 [1],AC50 [2]
O=C(Nc1cccc(Cl)c1)Nc1c[nH]c(=O)[nH]c1=O,-9.72%,–,–
O=C(NCCCN1CCCCC1)c1ccc(CS(=O)c2ccc(Cl)cc2)o1 (stereo not given),-17.4%,–,"29.1 µM [falling, single point]"
O=C(NCc1cc([N+](=O)[O-])ccc1O)c1cccnc1Sc1ccccc1Cl,22.2%,–,–
Cc1ccc(NC(=S)N2CCCCCC2)c(C)c1,-3.47%,–,"6.51 µM [rising, single point]"
CCn1c(CNC(=O)COc2ccc(C(C)C)cc2)nnc1SCC(=O)Nc1ccccc1F,18%,–,"1.84 µM [falling, partial curve]"
CCOC(=O)C1CCCN(C(=O)c2ccc3c(=O)n(CCOC)c(=S)[nH]c3c2)C1 (stereo not given),-22.2%,–,"29.1 µM [falling, single point]"
CCOC(=O)C(C(=O)NCc1ccc(F)cc1)c1ncc(C(F)(F)F)cc1Cl (stereo not given),-18.5%,–,"4.11 µM [rising, full curve]"
COc1ccc(OCCC(=O)NCCN2CCOCC2)cc1,59%,–,"29.1 µM [rising, single point]"
CCCOC(=O)c1ccc(OC(=O)c2ccco2)cc1,-11.6%,–,"2.31 µM [falling, full curve]"
COC(=O)/N=C/c1c(NCc2ccccc2)nc2c(C)cccn2c1=O,–,"2.31 µM [rising, partial curve]","0.58 µM [rising, single point]"
CCOc1ccc(NC(=O)CN2CCN(CC(=O)Nc3ccc(Cl)c(C(F)(F)F)c3)CC2)cc1,-2.53%,–,"0.82 µM [falling, full curve]"
O=C(COC(=O)C1CCN(c2ccc(C(F)(F)F)cn2)CC1)c1ccc(F)cc1,1.96%,–,"25.9 µM [falling, single point]"
CC(=O)c1cccc(S(=O)(=O)NCCCN2CCOCC2)c1,-6.89%,–,"0.58 µM [falling, single point]"
COc1cccc2cc(C(C)N(CCCN3CCOCC3)C(=S)Nc3ccccc3C)oc12 (stereo not given),-15.6%,"0.058 µM [falling, full curve, poor fit]","7.31 µM [falling, single point]"
N#Cc1ccc(C2=NC(C(F)(F)F)(C(F)(F)F)c3c(n(Cc4ccco4)c(=O)[nH]c3=O)N2)cc1,–,–,"0.103 µM [falling, full curve, poor fit]"
CCc1ccc2c(c1)cc(CN(C(=S)Nc1ccccc1Cl)C1CC1)c1nnnn12,6.07%,"0.517 µM [rising, partial curve]","1.03 µM [rising, full curve]"
CCCCNC(=O)C1(O)c2cc(Br)ccc2NC(=O)N1c1cccc(OC)c1 (stereo not given),22.4%,–,"32.6 µM [rising, single point]"
COc1ccc(C2/C(=C(\O)c3ccc4c(c3)OCCO4)C(=O)C(=O)N2CCCn2ccnc2)cc1 (stereo not given),9.91%,–,"0.651 µM [falling, single point]"
COc1ccc(C2C3=C(Nc4ncnn42)c2ccccc2CCC3)cc1 (stereo not given),-6.98%,–,"1.46 µM [rising, full curve]"
CC1=C(C(=O)Nc2ccccn2)C(c2ccc(N(C)C)cc2)n2ncnc2N1 (stereo not given),-23.3%,–,"29.1 µM [falling, single point]"
CCN(CC)C(=O)C1CCN(S(=O)(=O)c2ccc(C3CNC(=O)C3)cc2)CC1 (stereo not given),9.93%,–,"3.66 µM [falling, single point]"

SMILES,cell number change,AC50 [1],AC50 [2]
COc1ccc(-c2nc3c4c(ncn3n2)-c2ccccc2CC42CCCC2)cc1,-9.94%,–,"6.51 µM [falling, single point]"
O=C(Nc1ccccc1)Nc1ccccn1,16.7% and 1.6%,"0.231 µM [rising, full curve, poor fit]","82 nM [rising, full curve, poor fit] and 3.66 µM [rising, single point]"
S=C(Nc1ccc(Oc2ccccc2)cc1)N(CCCN1CCOCC1)Cc1ccccn1,-33.8%,"32.6 µM [falling, single point]",–
CCCCc1nnc(NC(=O)c2ccc3[nH]c(=O)c(=O)[nH]c3c2)s1,2.67%,–,"23.1 µM [rising, single point]"
CC(C1CC2CCC1C2)n1c(COc2ccccc2F)nnc1SCC(N)=O (stereo not given),-42.8%,–,–
CN(c1ccccc1)S(=O)(=O)c1ccc(NC(=O)c2ccc(-c3ccccc3)cc2)cc1,-5.12%,–,"18.4 µM [falling, single point]"
O=C(Nc1nnc(C2CC2)s1)c1cc2c(s1)CCCCCC2,-16.9%,–,"0.0731 µM [falling, full curve, poor fit]"
COc1ccc(C(=O)N2CCCC(Nc3ccc(C(C)C)cc3)C2)c(OC)n1 (stereo not given),0.88%,–,"0.103 µM [falling, full curve, poor fit]"
COC(=O)CCCC(=O)NC1CC(C)(C)Cc2c1cnn2-c1ccc(C)cc1 (stereo not given),-30.2%,"13 µM [falling, single point]","29.1 µM [falling, single point]"
c1ccc(-n2ncc3c(NCc4cccnc4)ncnc32)cc1,21.6%,–,"18.4 µM [rising, partial curve]"
CSCCC(NC(=O)c1cc(C(C)(C)C)oc1C)C(=O)O (stereo not given),-22.6%,"2.06 µM [falling, full curve, poor fit]","32.6 µM [falling, single point]"
Cc1ccc(C)c(OCCCCCn2ccnc2)c1,–,–,"23.1 µM [rising, single point]"
CC(C)(C)C(=O)C[n+]1ccccc1,-15.8%,–,"0.013 µM [falling, partial curve]"
CCOCCCn1c(=NC(C)=O)c(C(=O)OCC)cc2c(=O)n3ccccc3nc21,119%,"1.46 µM [rising, full curve]","2.06 µM [rising, full curve]"
O=C(O)C1CCCCC1C(=O)NCCc1ccc(F)cc1 (stereo not given),-9.6%,–,"5.8 µM [falling, partial curve]"
COCCn1c(Cc2ccccc2)nnc1SCC(=O)Nc1ccccc1,-15.5%,"6.51 µM [falling, single point]",–
CC(C)CNC(=S)NC1CC2CCC(C1)N2Cc1ccccc1 (stereo not given),-19.3%,–,–
N#Cc1c2n(c3c(=O)n(Cc4ccccc4)cnc13)CCCC2,–,"2.59 µM [rising, partial curve]",–
Nc1nc(-c2ccc3c(c2)CCC(=O)N3)cs1,34%,–,–

# Some of the entries so far, with tabs:
SMILES	cell number change	AC50 [1]	AC50 [2]
COC(=O)CCCC(=O)NC1CC(C)(C)Cc2c1cnn2-c1ccc(C)cc1 (stereo not given)	-30.2%	13 µM [falling, single point]	29.1 µM [falling, single point]
O=C(O)C1CCCCC1C(=O)NCCc1ccc(F)cc1 (stereo not given)	-9.6%	–	5.8 µM [falling, partial curve]
